Data as given in PubChem BioAssay AID1259405 (NCATS, 2018)
Test: 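Silenced genes that increase secreted GFP made by CHO cells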 (primary screen). System: Chinese hamster CHO-K1 ovary cells with stable secreted eGFP expression. Reagent: single siRNA against mouse genes, 0.8 pmol siRNA per well (2 µl of 400 nM stock). Duration: 3 days. Measurement: 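Per-well intracellular GFP measured by laser scanning cytometry, plus viability from ATP luminescence, each relative to plate median of non-targeting control wells, in %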. Reading the numbers: GFP, % of control: higher = more GFP per well, higher productivity; viability (ATP), % of control: higher = more viable cells (more ATP). Hit rule: 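a knock-down is called active if GFP reaches 120% or more of non-targeting control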.
Here is an unselected part of about 50,000 reagents tested. Over the whole deposit, about 4,000 (8%) were called active. 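Mouse siRNA library applied to hamster cells; one well for each siRNA.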 Entries without a mark were called inactive. Reagents against one gene are numbered here.

target gene | siRNA no. | GFP, % of control | viability (ATP), % of control
Pnck | 1 | 50.9 | 50.2
Pnck | 2 | 46.8 | 55.6
Pnck | 3 | 71.1 | 81.2
Mrap | 1 | 66.6 | 80.2
Mrap | 2 | 92.3 | 96.7
Mrap | 3 | 86.7 | 75.7
Pitpnb | 1 | 70.6 | 92.3
Pitpnb | 2 | 163 (active) | 90.2
Agtr1b | 1 | 73.6 | 66.1
Agtr1b | 2 | 80.7 | 72.1
Agtr1b | 3 | 80.2 | 58.2
Igsf5 | 1 | 49.5 | 69.5
Igsf5 | 2 | 77.6 | 53.6
Igsf5 | 3 | 80.5 | 52.1
Msln | 1 | 129 (active) | 115
Msln | 2 | 90.3 | 85.7
Nfkbia | 1 | 83.2 | 70.5
Nfkbia | 2 | 122 (active) | 77.7
Nfkbia | 3 | 42 | 52
Lrrc61 | 1 | 49.5 | 52.4
Lrrc61 | 2 | 85.1 | 70.3
Lrrc61 | 3 | 96.4 | 83.7
Zbtb44 | 1 | 46.9 | 64.4
Zbtb44 | 2 | 72.6 | 98.8
Zbtb44 | 3 | 61.6 | 71.9
Zbtb44 | 4 | 97.1 | 89.2
Zbtb44 | 5 | 103 | 108
Zbtb44 | 6 | 130 (active) | 168
Vps53 | 1 | 39 | 54.7
Vps53 | 2 | 95.8 | 53.8
Vps53 | 3 | 71.2 | 69.1
Or2a57 | 1 | 85 | 62.7
Or2a57 | 2 | 95.5 | 57.1
Or2a57 | 3 | 31.6 | 29.3
Or7g18 | 1 | 62 | 51.6
Or7g18 | 2 | 92.3 | 97.9
Or7g18 | 3 | 58.7 | 73.9
Pgr | 1 | 63.6 | 74.5
Pgr | 2 | 31.9 | 35.8
Pgr | 3 | 37.5 | 61.1
Cntn3 | 1 | 88.7 | 88.2
Cntn3 | 2 | 69.5 | 62.9
Cntn3 | 3 | 72.9 | 89.7
Hoxb2 | 1 | 74.1 | 80
Hoxb2 | 2 | 78.3 | 69.6
Speer4f1 | 1 | 64.9 | 78
Speer4f1 | 2 | 115 | 115
Speer4f1 | 3 | 108 | 58.5
Prom2 | 1 | 76.9 | 86.7
Prom2 | 2 | 64.6 | 59.9
D130020L05Rik | 1 | 83.1 | 63.3
D130020L05Rik | 2 | 79.1 | 63.1
D130020L05Rik | 3 | 115 | 116
Scgb2b20 | 1 | 54.7 | 67.9
Scgb2b20 | 2 | 35.6 | 31.7
Scgb2b20 | 3 | 50.1 | 76.3
Cdc42se1 | 1 | 49.5 | 80.3
Cdc42se1 | 2 | 121 (active) | 53.5
Cdc42se1 | 3 | 129 (active) | 111
Nr1h4 | 1 | 43.6 | 55.7
Nr1h4 | 2 | 77.9 | 87.2
Myl2 | 1 | 63.8 | 33.4
Myl2 | 2 | 85.6 | 82.8
Ruvbl2 | 1 | 46.1 | 42.8
Ruvbl2 | 2 | 73.3 | 41.9
Ruvbl2 | 3 | 52.4 | 44.5
Mcf2l | 1 | 71.1 | 79.5
Mcf2l | 2 | 144 (active) | 85.2
Mcf2l | 3 | 62.3 | 80.3
Smim3 | 1 | 78.1 | 54.6
Smim3 | 2 | 127 (active) | 107
Smim3 | 3 | 82.4 | 92.2
Mc3r | 1 | 59.7 | 60
Mc3r | 2 | 46.6 | 76.3
Mc3r | 3 | 74.4 | 75.1
Cdc25b | 1 | 98.5 | 108
Cdc25b | 2 | 50.2 | 48.6
Cdc25b | 3 | 79.7 | 67.7
Skp2 | 1 | 77.3 | 92.1
Skp2 | 2 | 43.8 | 38.3
Ddah2 | 1 | 96.9 | 53.1
Ddah2 | 2 | 76.6 | 80.5
Ddah2 | 3 | 81.5 | 45.2
Dnajc3 | 1 | 96.6 | 65.1
Dnajc3 | 2 | 103 | 100
Dnajc3 | 3 | 67.2 | 106
Ttpal | 1 | 84.9 | 62
Ttpal | 2 | 46.9 | 75.8
Ttpal | 3 | 99.3 | 113
Epcam | 1 | 80.8 | 66.8
Epcam | 2 | 60.6 | 73
Epcam | 3 | 74 | 69.5
Spry1 | 1 | 43.5 | 69.7
Spry1 | 2 | 39.2 | 35
Spry1 | 3 | 58.4 | 68.5
Slc51a | 1 | 62.5 | 35
Slc51a | 2 | 43.5 | 66.3
Slc51a | 3 | 99.3 | 65.8
Shroom1 | 1 | 97 | 89.5
Shroom1 | 2 | 79.4 | 67.4
Abr | 1 | 92 | 71.8
Abr | 2 | 115 | 100
Abr | 3 | 53.2 | 41.9
Mta3 | 1 | 51.8 | 68.9
Mta3 | 2 | 93.6 | 81.9
Mta3 | 3 | 61.8 | 69.9
Nat9 | 1 | 77.3 | 92.7
Nat9 | 2 | 125 (active) | 81.4
Nat9 | 3 | 70.5 | 30.1

8 entries from above, arranged by “GFP, % of control”, highest first:
target gene | siRNA no. | GFP, % of control | viability (ATP), % of control
Zbtb44 | 6 | 130 (active) | 168
Zbtb44 | 5 | 103 | 108
Vps53 | 2 | 95.8 | 53.8
Or2a57 | 2 | 95.5 | 57.1
Or2a57 | 1 | 85 | 62.7
Vps53 | 3 | 71.2 | 69.1
Vps53 | 1 | 39 | 54.7
Or2a57 | 3 | 31.6 | 29.3
